Measured values reported in article PMC10526209, “Systematic Exploration of Functional Group Relevance for Anti-Leishmanial Activity of Anisomycin” (Biomedicines, 2023).

Test system: L. tarentolae lysate
Test: Cell-free transcription-translation inhibition in L. tarentolae lysate
Type: biochemical
Settings: for SI (selectivity index) = IC50 L. tarentolae/IC50 RR: ratio of translation IC50 values; for fold less active than anisomycin against Leishmania: translation inhibition, relative to anisomycin
Description: Cytosolic ribosome susceptibility and selectivity were assessed through three different cell-free transcription-translation assays: (1) An extract of E. coli (S30, Promega, Madison, WI, USA), (2) in rabbit reticulocytes (Promega), and (3) in L. tarentolae lysate (Jena Bioscience, Jena, Germany). Three plasmids, compatible with each extract system, were used in this study: pBESTlucTM (Promega) for the prokaryotic translation assay, Luciferase T7 DNA (Promega) for the reticulocytes, and pLEXSY-invitro2-EGFP (Jena Bioscience) for Leishmania. Firefly luciferase was used as a reporter gene for the bacterial and reticulocyte systems, and EGFP for Leishmania. […] Assays were performed in white polystyrene 96-well flat-bottom plates (Nunc, Roskilde, Denmark) for luciferase and black polystyrene 384-well flat-bottom plates (Greiner, Kremsmunster, Austria) for EGFP. Incubation times were 60 min at 37 °C, 90 min at 30 °C, and 120 min at 26 °C for the bacterial, reticulocyte, and Leishmania systems, respectively. Reactions were stopped by quick snap cooling followed by a 5 min incubation on ice. Luciferase activity was measured for each well following the addition of 50 μL of Luciferase Assay reagent (Promega, Madison, WI, USA) with an automatic reagent injector (Tecan, Mannedorf, Switzerland) by recording the chemical-luminescence signal. EGFP fluorescence (λex = 488 nm; λem = 507 nm) was recorded on a Tecan Infinite R®F200 microplate reader (Tecan). Extracts lacking the circular DNA template were used as a negative control to calculate the fluorescence/chemical luminescence background. Reaction mixtures without compounds were used as positive controls and were regarded as 100% translation. Paromomycin was used as a control reagent in all assays. At least six different concentrations were used to plot each translation inhibition curve; experiments were performed in three independent repeats in duplicate. Half maximal inhibition concentrations (IC50) values were calculated from the concentration-response fitting curves using GraFit7.0.3 software.

## COc1ccc(C[C@H]2NC[C@H](O)[C@H]2OC)cc1.Cl [Analog 11, (2R,3S,4S)-3-methoxy-4-hydroxy-2-(4-methoxybenzyl)-pyrrolidine hydrochloride]
  SI (selectivity index) = IC50 L. tarentolae/IC50 RR: 0.3

## CC(=O)O[C@@H]1[C@@H](O)CN[C@@H]1Cc1ccc(OC(C)C)cc1 [Analog 22a, (2R,3S,4S)-4-hydroxy-2-(4-iso-propoxybenzyl)-pyrrolidin-3-yl acetate]
  SI (selectivity index) = IC50 L. tarentolae/IC50 RR: 1.2
  fold less active than anisomycin against Leishmania: 2 fold

## CC(=O)O[C@@H]1[C@@H](O)CN[C@@H]1Cc1ccc(O)cc1 [Analog 17, (2R,3S,4S)-4-hydroxy-2-(4-hydroxybenzyl)-pyrrolidin-3-yl acetate]
  SI (selectivity index) = IC50 L. tarentolae/IC50 RR: 8.6

## CCCCCCCCOc1ccc(C[C@H]2NC[C@H](O)[C@H]2OC(C)=O)cc1 [Analog 22b, (2R,3S,4S)-4-hydroxy-2-(4-octyloxybenzyl)-pyrrolidin-3-yl acetate]
  SI (selectivity index) = IC50 L. tarentolae/IC50 RR: 3.5

## NC[C@@H]1O[C@H](O[C@H]2[C@@H](O)[C@H](O[C@@H]3[C@@H](O)[C@H](N)C[C@H](N)[C@H]3O[C@H]3O[C@H](CO)[C@@H](O)[C@H](O)[C@H]3N)O[C@@H]2CO)[C@H](N)[C@@H](O)[C@@H]1O [Paromomycin, reference compound]
  SI (selectivity index) = IC50 L. tarentolae/IC50 RR: 0.2

## CC(=O)O[C@@H]1[C@@H](O)CN[C@@H]1Cc1ccc(OCc2ccccc2)cc1 [Analog 22c, (2R,3S,4S)-4-hydroxy-2-(4-benzyloxybenzyl)-pyrrolidin-3-yl acetate]
  SI (selectivity index) = IC50 L. tarentolae/IC50 RR: 8.8
  fold less active than anisomycin against Leishmania: 14 fold
